Laboratory results published in US20180215825A1.
Results are given in words; binding and its absence hold for the method and conditions named. Some results given as binding are weak or reduced against the parent protein; the word gives no strength.

Protein sequences, listed by entry. Tags and fused reporters are not part of them. Lines headed by an entry give the natural chain unless they say otherwise; changes in a name come on top. Chains listed by the source or under a name are the forms on record and can include a tag or linker.
cynomolgus monkey PD-L1/His (cynomolgus monkey (Macaca fascicularis)) (G7PSE7, form named): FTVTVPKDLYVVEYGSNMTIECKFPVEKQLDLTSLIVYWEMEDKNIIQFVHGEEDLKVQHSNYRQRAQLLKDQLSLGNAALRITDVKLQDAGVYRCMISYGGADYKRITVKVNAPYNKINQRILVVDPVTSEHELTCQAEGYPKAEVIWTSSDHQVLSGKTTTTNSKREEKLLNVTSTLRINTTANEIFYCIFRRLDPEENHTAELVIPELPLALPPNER

Molecular target: cynomolgus monkey PD-L1/His (cynomolgus monkey (Macaca fascicularis)) (UniProt G7PSE7)
Experiment: SPR

binding	Binder
binds	hu333-4A2 Fab (Fab, V domains shown) VH: EVQLVESGGGLVQPGGSLRLSCAVSGFSLTSYGVHWVRQAPGKGLEWVAVIWAGGSTNYVDSVKGRFTISKDNAKNTVYLQMNSLRAEDTAVYYCAKPYGTSAMDYWGQGTLVTVSS VL: DIQMTQSPSSLSASVGDRVTITCKASQDVGIVVAWYQQKPGKAPKLLIYWASIRHTGVPSRFSGSGSGTEFTLTISSLQPDDFATYYCQQYSNYPLYTFGQGTKVEIK
binds	hu333-4B2 Fab (Fab, V domains shown) VH: EVQLVESGGGLVQPGGSLRLSCAVSGFSLTSYGVHWVRQAPGKGLEWVAVIWAGGSTNYADSVKGRFTISKDTSKNTVYLQMNSLRAEDTAVYYCAKPYGTSAMDYWGQGTLVTVSS VL: DIQMTQSPSSLSASVGDRVTITCKASQDVGIVVAWYQQKPGKAPKLLIYWASIRHTGVPSRFSGSGSGTEFTLTISSLQPDDFATYYCQQYSNYPLYTFGQGTKVEIK
